Laboratory results from patent publication US20240110202A1, “Advanced Cell-Permeable Peptide Carriers” (MUSC FOUNDATION FOR RESEARCH DEVELOPMENT, priority 2020, published 2024).
Some results were stated once for a whole list of compounds, not compound by compound.

Experiment: Serum protection assay
Type: in vitro ADME
Conditions: siCIP2A, 50:1, 50% human serum, 1 hour at 37° C.
Description: Afterwards, complexes were either treated or untreated with 50% human serum (final concentration; VWR, Radnor, PA) for 1 hour at 37° C., followed by denaturation with 4% SDS. Next, the samples were electrophoresed on a 4% agarose gel and resulting siCIP2A bands were imaged and quantified, as described above.

GlfeaieGfienGweGmidGwyGGGGRRRRRRRRRK [INF7D]
complexed siRNA degradation in the presence of human serum: 20-60%
